This is one part of the list. Repeats are few or missing, and single values can be far off.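 Imaging used 1,536-well plates; nuclei positive for cleaved PARP by antibody were divided by total DNA-stained nuclei to yield the apoptosis fraction. Doses for screening kept most cells viable, and cell lines differ markedly in resting and induced cleaved-PARP levels.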
Experiments:
Experiment in all cases: cleaved PARP positive nuclei fraction relative to DMSO control; melanoma cells; higher = more apoptosis
Settings in all cases: library dose: low library concentration; 72 h
MZ2-MEL = test system: MZ2-MEL
MeWo = test system: MeWo
RPMI7951 = test system: RPMI7951
RVH-421 = test system: RVH-421
SkMel28 = test system: SkMel28
SkMel2 = test system: SkMel2
SkMel30 = test system: SkMel30
UACC62 = test system: UACC62
WM115 = test system: WM115
WM1716 = test system: WM1716
WM1745 = test system: WM1745
WM3526 = test system: WM3526
WM3619 = test system: WM3619
WM451Lu = test system: WM451Lu

| SMILES | cleaved PARP positive nuclei fraction (MZ2-MEL) [%] | cleaved PARP positive nuclei fraction (MeWo) [%] | cleaved PARP positive nuclei fraction (RPMI7951) [%] | cleaved PARP positive nuclei fraction (RVH-421) [%] | cleaved PARP positive nuclei fraction (SkMel28) [%] | cleaved PARP positive nuclei fraction (SkMel2) [%] | cleaved PARP positive nuclei fraction (SkMel30) [%] | cleaved PARP positive nuclei fraction (UACC62) [%] | cleaved PARP positive nuclei fraction (WM115) [%] | cleaved PARP positive nuclei fraction (WM1716) [%] | cleaved PARP positive nuclei fraction (WM1745) [%] | cleaved PARP positive nuclei fraction (WM3526) [%] | cleaved PARP positive nuclei fraction (WM3619) [%] | cleaved PARP positive nuclei fraction (WM451Lu) [%] |
| --- | --- | --- | --- | --- | --- | --- | --- | --- | --- | --- | --- | --- | --- | --- |
| N#CC[C@H](C1CCCC1)n1cc(-c2ncnc3[nH]ccc23)cn1 [ruxolitinib] + CS(=O)(=O)c1ccc(C(=O)Nc2ccc(Cl)c(-c3ccccn3)c2)c(Cl)c1 [vismodegib] (first compound 1 µM, partner dose 1 µM) | 136 | 173 | 136 | 126 | 41 | 54.5 | 210 | 81.2 | 148 | 40.7 | 87.5 | 214 | 120 | 133 |
| Cc1ccc(Nc2nccc(N(C)c3ccc4c(C)n(C)nc4c3)n2)cc1S(N)(=O)=O [Pazopanib] + CC(=O)c1c(C)c2cnc(Nc3ccc(N4CCNCC4)cn3)nc2n(C2CCCC2)c1=O [palbociclib] (first compound 0.4 µM, partner dose 0.04 µM) | 68.6 | 59 | 116 | 93.8 | 76.3 | 144 | 78.8 | 116 | 145 | 49.1 | 111 | 69.9 | 115 | 203 |
| N#CC[C@H](C1CCCC1)n1cc(-c2ncnc3[nH]ccc23)cn1 [ruxolitinib] + CC1(C)CCC(c2ccc(Cl)cc2)=C(CN2CCN(c3ccc(C(=O)NS(=O)(=O)c4ccc(N[C@H](CCN5CCOCC5)CSc5ccccc5)c(S(=O)(=O)C(F)(F)F)c4)cc3)CC2)C1 [ABT263] (first compound 1 µM, partner dose 0.4 µM) | 361 | 818 | 229 | 31.4 | 65.2 | 295 | 118 | 66.3 | 308 | 157 | 394 | 60.1 | 113 | 62.1 |
| Cc1cn(-c2cc(NC(=O)c3ccc(C)c(Nc4nccc(-c5cccnc5)n4)c3)cc(C(F)(F)F)c2)cn1 [nilotinib] + Cn1c(=O)n(-c2ccc(C(C)(C)C#N)cc2)c2c3cc(-c4cnc5ccccc5c4)ccc3ncc21 [NVP-BEZ235] (first compound 0.2 µM, partner dose 0.004 µM) | 25 | 24.5 | 52.2 | 63.8 | 70.3 | 92.7 | 88.4 | 95.9 | 83.4 | 145 | 95 | 156 | 98.6 | 163 |
| CCCCCCCCCCCCCCCCCCOP(=O)([O-])OC1CC[N+](C)(C)CC1 [Perifosine] + CCCS(=O)(=O)Nc1ccc(F)c(C(=O)c2c[nH]c3ncc(Cl)cc23)c1F [PLX4720] (first compound 0.4 µM, partner dose 0.08 µM) | 109 | 44.2 | 30.7 | 99.7 | 24.7 | 117 | 152 | 66.1 | 80.1 | 31 | 445 | 88.6 | 151 | 54 |
| COc1cc([C@@H]2c3cc4c(cc3[C@@H](O[C@@H]3O[C@@H]5CO[C@@H](C)O[C@H]5[C@H](O)[C@H]3O)[C@H]3COC(=O)[C@H]23)OCO4)cc(OC)c1O [etoposide] + CC(=O)c1c(C)c2cnc(Nc3ccc(N4CCNCC4)cn3)nc2n(C2CCCC2)c1=O [palbociclib] (first compound 0.02 µM, partner dose 0.04 µM) | 52.2 | 33.4 | 213 | 113 | 97.7 | 73.7 | 43.8 | 238 | 28.7 | 108 | 157 | 117 | 153 | 128 |
| O=C(/C=C/c1cccnc1)NCCCCC1CCN(C(=O)c2ccccc2)CC1 + C=CCNC1=C2C[C@@H](C)C[C@H](OC)[C@H](O)[C@@H](C)/C=C(\C)[C@H](OC(N)=O)[C@@H](OC)/C=C\C=C(/C)C(=O)NC(=CC1=O)C2=O [Tanespimycin] (first compound 0.01 µM, partner dose 0.002 µM) | 270 | 100 | 33.6 | 103 | 37.7 | 1480 | 73.2 | 116 | 167 | 71.9 | 103 | 86.4 | 110 | 37 |
| Cc1cn(-c2cc(NC(=O)c3ccc(C)c(Nc4nccc(-c5cccnc5)n4)c3)cc(C(F)(F)F)c2)cn1 [nilotinib] + CC(=O)O[C@@]12CO[C@@H]1C[C@H](O)[C@@]1(C)C(=O)[C@H](O)C3=C(C)[C@@H](OC(=O)[C@H](O)[C@@H](NC(=O)OC(C)(C)C)c4ccccc4)C[C@@](O)([C@@H](OC(=O)c4ccccc4)[C@H]21)C3(C)C [Docetaxel] (first compound 0.2 µM, partner dose 0.0001 µM) | 186 | 187 | 325 | 122 | 237 | 580 | 129 | 169 | 281 | 338 | 157 | 228 | 278 | 64.2 |
| Cc1ccc(Nc2nccc(N(C)c3ccc4c(C)n(C)nc4c3)n2)cc1S(N)(=O)=O [Pazopanib] + COc1ccc(C2=N[C@@H](c3ccc(Cl)cc3)[C@@H](c3ccc(Cl)cc3)N2C(=O)N2CCNC(=O)C2)c(OC(C)C)c1 [Nutlin-3] (first compound 0.4 µM, partner dose 0.1 µM) | 113 | 63.7 | 124 | 90.1 | 80 | 29.2 | 50.8 | 100 | 64.3 | 169 | 106 | 36.6 | 112 | 33.8 |
| O=C(Nc1cc(C(F)(F)F)cc(C(F)(F)F)c1)c1cc(Cl)ccc1O + NC(=O)c1ccc(N(C(N)=O)c2c(F)cccc2F)nc1-c1ccc(F)cc1F [VX702] (first compound 0.016 µM, partner dose 0.4 µM) | 25.9 | 10.3 | 85.5 | 203 | 219 | 40.3 | 63.6 | 101 | 106 | 61.2 | 95 | 39.6 | 91.8 | 236 |
| Cc1ccc(Nc2nccc(N(C)c3ccc4c(C)n(C)nc4c3)n2)cc1S(N)(=O)=O [Pazopanib] + CCCS(=O)(=O)Nc1ccc(F)c(C(=O)c2c[nH]c3ncc(Cl)cc23)c1F [PLX4720] (first compound 0.4 µM, partner dose 0.08 µM) | 102 | 71.3 | 109 | 147 | 77.2 | 58.8 | 67.1 | 62.5 | 30.7 | 275 | 111 | 74.9 | 77.8 | 39.6 |
| COc1cc([C@@H]2c3cc4c(cc3[C@@H](O[C@@H]3O[C@@H]5CO[C@@H](C)O[C@H]5[C@H](O)[C@H]3O)[C@H]3COC(=O)[C@H]23)OCO4)cc(OC)c1O [etoposide] + CC(=O)O[C@@]12CO[C@@H]1C[C@H](O)[C@@]1(C)C(=O)[C@H](O)C3=C(C)[C@@H](OC(=O)[C@H](O)[C@@H](NC(=O)OC(C)(C)C)c4ccccc4)C[C@@](O)([C@@H](OC(=O)c4ccccc4)[C@H]21)C3(C)C [Docetaxel] (first compound 0.02 µM, partner dose 0.0001 µM) | 267 | 767 | 135 | 405 | 283 | 394 | 288 | 237 | 289 | 610 | 108 | 681 | 109 | 150 |
| CC[C@]1(O)C[C@H]2CN(CCc3c([nH]c4ccccc34)[C@@](C(=O)OC)(c3cc4c(cc3OC)N(C=O)[C@H]3[C@@](O)(C(=O)OC)[C@H](OC(C)=O)[C@]5(CC)C=CCN6CC[C@]43[C@@H]65)C2)C1 [vincristine] + O=C(O)[C@@H]1[O][Sb](=[O])([O][Sb]2(=[O])[O][C@H]([C@H](O)CO)[C@H](O)[C@H](C(=O)O)[O]2)[O][C@H]([C@H](O)CO)[C@@H]1O [stibogluconate] (first compound 0.0001 µM, partner dose 2 µM) | 53 | 64.3 | 108 | 44.2 | 80.2 | 76.9 | 98.8 | 240 | 295 | 272 | 78 | 84.2 | 94 | 116 |
| O=C(Nc1cc(C(F)(F)F)cc(C(F)(F)F)c1)c1cc(Cl)ccc1O + CS(=O)(=O)c1ccc(C(=O)Nc2ccc(Cl)c(-c3ccccn3)c2)c(Cl)c1 [vismodegib] (first compound 0.016 µM, partner dose 1 µM) | 76.9 | 111 | 124 | 109 | 58.8 | 38.6 | 85.7 | 267 | 216 | 63.8 | 81.3 | 129 | 76.2 | 104 |
| Cc1cc(Nc2cc(N3CCN(C)CC3)nc(Sc3ccc(NC(=O)C4CC4)cc3)n2)n[nH]1 [Tozasertib] + C[C@@H](Oc1cc(-c2cnn(C3CCNCC3)c2)cnc1N)c1c(Cl)ccc(F)c1Cl [Crizotinib] (first compound 0.006 µM, partner dose 0.2 µM) | 81.2 | 224 | 47.4 | 118 | 75.9 | 79.2 | 39.3 | 82.7 | 211 | 50.5 | 107 | 61.1 | 96.7 | 138 |
| O=C(Nc1cc(C(F)(F)F)cc(C(F)(F)F)c1)c1cc(Cl)ccc1O + CNC(=O)c1cc(Oc2ccc(NC(=O)Nc3ccc(Cl)c(C(F)(F)F)c3)cc2)ccn1 [sorafenib] (first compound 0.016 µM, partner dose 0.4 µM) | 37.7 | 110 | 53.7 | 194 | 286 | 37.5 | 126 | 211 | 72.2 | 111 | 82.6 | 30.5 | 96.8 | 43.7 |
| CCCCCCCCCCCCCCCCCCOP(=O)([O-])OC1CC[N+](C)(C)CC1 [Perifosine] + CC(C)C[C@H](NC(=O)[C@H](Cc1ccccc1)NC(=O)c1cnccn1)B(O)O [Bortezomib] (first compound 0.4 µM, partner dose 0.001 µM) | 35.5 | 194 | 224 | 196 | 371 | 131 | 27.5 | 167 | 159 | 94.5 | 117 | 112 | 122 | 1420 |

Some of the entries above in a different format.
SMILES	cleaved PARP positive nuclei fraction (MZ2-MEL) [%]	cleaved PARP positive nuclei fraction (MeWo) [%]	cleaved PARP positive nuclei fraction (RPMI7951) [%]	cleaved PARP positive nuclei fraction (RVH-421) [%]	cleaved PARP positive nuclei fraction (SkMel28) [%]	cleaved PARP positive nuclei fraction (SkMel2) [%]	cleaved PARP positive nuclei fraction (SkMel30) [%]	cleaved PARP positive nuclei fraction (UACC62) [%]	cleaved PARP positive nuclei fraction (WM115) [%]	cleaved PARP positive nuclei fraction (WM1716) [%]	cleaved PARP positive nuclei fraction (WM1745) [%]	cleaved PARP positive nuclei fraction (WM3526) [%]	cleaved PARP positive nuclei fraction (WM3619) [%]	cleaved PARP positive nuclei fraction (WM451Lu) [%]
Cc1ccc(Nc2nccc(N(C)c3ccc4c(C)n(C)nc4c3)n2)cc1S(N)(=O)=O [Pazopanib] + CCCS(=O)(=O)Nc1ccc(F)c(C(=O)c2c[nH]c3ncc(Cl)cc23)c1F [PLX4720] (first compound 0.4 µM, partner dose 0.08 µM)	102	71.3	109	147	77.2	58.8	67.1	62.5	30.7	275	111	74.9	77.8	39.6
COc1cc([C@@H]2c3cc4c(cc3[C@@H](O[C@@H]3O[C@@H]5CO[C@@H](C)O[C@H]5[C@H](O)[C@H]3O)[C@H]3COC(=O)[C@H]23)OCO4)cc(OC)c1O [etoposide] + CC(=O)O[C@@]12CO[C@@H]1C[C@H](O)[C@@]1(C)C(=O)[C@H](O)C3=C(C)[C@@H](OC(=O)[C@H](O)[C@@H](NC(=O)OC(C)(C)C)c4ccccc4)C[C@@](O)([C@@H](OC(=O)c4ccccc4)[C@H]21)C3(C)C [Docetaxel] (first compound 0.02 µM, partner dose 0.0001 µM)	267	767	135	405	283	394	288	237	289	610	108	681	109	150

Reference: the supplement of paper PMC4604168 (melanoma cell lines)
